Results from patent publication US20210078985A1, “COMPOUND, PREPARATION METHOD THEREFOR, AND USE THEREOF” (MEDSPRING INTERNATIONAL LIMITED, priority 2018, published 2021).
Some of these results come from one statement about several compounds together.

Experiments:
Caco-2 cells = assay: In vitro membrane permeability test (Caco-2 monolayer); conditions: Caco-2 Papp relative to compound 6
Description: Caco-2 cell model is a human colonic adenocarcinoma cell line having a structure and function similar to differentiated intestinal epithelial cells. It has microvilli and other structures, and contains enzyme system related to intestinal brush border epithelium.
The cryopreserved Caco-2 cells were thawed in 37° C. water bath. After resuscitation, the cells were added into DMEM medium containing 10% FBS, and cultured in an incubator with 37° C., 5% CO2 and 90% relative humidity. The culture medium was changed every other day. After 1-2 days of growth, the cells were digested with 0.25% trypsin-EDTA (0.2%) mixed digestive solution at 37° C. and passaged in a certain proportion. The cell generation used in the experiments was 40-60 passages.
When cells reached 80% confluency, they were digested and suspended in complete medium and seeded on Millicell plate at 1×10^6 cells·ml^−1. After that, the culture medium was changed once every 2 days and after 1 week, was changed once every 1 day. […]
The apparent permeability coefficient (Papp) of drugs reflects the ability of drugs to pass through monolayer cells and the speed and degree of drug absorption. It can be calculated by the following formula: […]
LC/MS was used for testing. The standard curve ([…]-10000 nM) was used to quantify the concentration of each sample.

[1] = aqueous solution, room temperature, relative to compound 6
Description: Solubility of compounds was determined according to the method established in the general instructions of Part II of Pharmacopoeia 2010 edition. […] The dissolution was observed within 30 minutes.
(§1) The dissolution was then observed within 30 minutes.
as §1

## COc1cccc2c1c(NS(=O)(=O)c1ccc(Cl)s1)nn2Cc1cccc(CNC(=O)C(C)(C)O)c1.[Na] [Compound of formula II, N-[(3-{[3-{[(5-chloro-2-thienyl)sulfonyl]amino}-4-(methoxy)-1H-indazole-1-yl]methyl}phenyl)methyl]-2-hydroxy-2-methylpropionamide sodium]
Caco-2 cells
  permeability, times higher than compound 6: 530-780 times
[1]
  solubility, times higher than that of compound 6: 2000-25000 times
